No constants are given. Whether binding was seen depends on the method and setting. In cells and extracts the contact can be indirect. Some binding calls cover weakened binding; strength is not graded here. Where a sequence is shown, tags or fusion partners need not be part of it.
Experiments:
[1] = biological target: myeloid differentiation primary response gene 88 (MyD88), endogenous in mouse BMDMs (mouse (endogenous in BMDMs)) (UniProt P22366); experiment: co-IP; BMDMs with or without LPS (1 ug/mL, 15 min), lysed in RIPA buffer, precleared; immunoprecipitated with anti-MyD88 goat pAb; blotted with anti-P2X7, anti-MyD88 and anti-HA tag antibodies; wild-type, P2X7-CT2 Tg and anti-P2X7-scFv Tg BMDMs compared
[2] = biological target: TLR4-CT-Myc (mouse TLR4 C-terminal intracellular domain, amino acids 660-835) (mouse) (UniProt Q9QUK6); experiment: co-IP; lysates (RIPA) of separately transfected DO-11.10 cells mixed, 4 °C overnight; complexes taken with a Myc Tagged Protein Purification Kit; blotted with anti-HA and anti-Myc tag antibodies
[3] = biological target: TLR4-CT-Myc (mouse TLR4 C-terminal intracellular domain, amino acids 660-835) (mouse) (UniProt Q9QUK6); experiment: co-IP; as a3, lysates of HA-P2X7-CT2 and TLR4-CT-Myc cells mixed with or without lysate of anti-P2X7-scFv-His cells; anti-Myc precipitation; blotted with anti-HA, anti-Myc or anti-His tag antibody

Amino acid sequences for entries named in this document (tags omitted). Residues count along the entry.
UniProt P22366: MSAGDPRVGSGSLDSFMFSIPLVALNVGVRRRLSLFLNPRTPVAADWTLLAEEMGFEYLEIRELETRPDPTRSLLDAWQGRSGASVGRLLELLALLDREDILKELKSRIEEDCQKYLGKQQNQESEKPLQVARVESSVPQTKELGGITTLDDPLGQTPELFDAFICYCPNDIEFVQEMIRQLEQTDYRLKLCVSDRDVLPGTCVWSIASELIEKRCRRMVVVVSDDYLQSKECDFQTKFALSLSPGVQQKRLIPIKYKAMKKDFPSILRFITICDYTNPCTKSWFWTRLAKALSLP
UniProt Q9QUK6, residues 660-835: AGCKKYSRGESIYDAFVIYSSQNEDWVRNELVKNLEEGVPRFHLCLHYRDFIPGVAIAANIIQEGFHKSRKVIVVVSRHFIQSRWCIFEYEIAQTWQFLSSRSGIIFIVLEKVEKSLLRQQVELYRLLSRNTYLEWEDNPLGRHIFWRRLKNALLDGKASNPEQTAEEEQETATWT

| Binder | binding [1] | binding [2] | binding [3] |
| --- | --- | --- | --- |
| P2X7 (endogenous, mouse bone marrow-derived macrophages) (receptor, UniProt Q9Z1M0 1-595) MPACCSWNDVLQYETNKVTRIQSTNYGTVKWVLHMIVFSYISFALVSDKLYQRKEPVISSVHTKVKGIAEVTENVTEGGVTKLGHSIFDTADYTFPLQGNSFFVMTNYVKSEGQVQTLCPEYPRRGAQCSSDRRCKKGWMDPQSKGIQTGRCVPYDKTRKTCEVSAWCPTEEEKEAPRPALLRSAENFTVLIKNNIHFPGHNYTTRNILPTMNGSCTFHKTWDPQCSIFRLGDIFQEAGENFTEVAVQGGIMGIEIYWDCNLDSWSHHCRPRYSFRRLDDKNTDESFVPGYNFRYAKYYKENNVEKRTLIKAFGIRFDILVFGTGGKFDIIQLVVYIGSTLSYFGLATVCIDLLINTYSSAFCRSGVYPYCKCCEPCTVNEYYYRKKCESIMEPKPTLKYVSFVDEPHIRMVDQQLLGKSLQVVKGQEVPRPQMDFSDLSRLSLSLHDSPLTPGQSEEIQLLHEEVAPKSGDSPSWCQCGNCLPSRLPEQRRALEELCCRRKPGRCITTSKLFHKLVLSRDTLQLLLLYQDPLLVLGEEATNSRLRHRAYRCYATWRFGSQDMADFAILPSCCRWRIRKEFPKTEGQYSGFKYPY | binds |  |  |
| HA-P2X7-CT2 (mouse P2X7 C-terminal domain, amino acids 392-595), overexpressed in P2X7-CT2 Tg BMDMs (domain or fragment, UniProt Q9Z1M0 392-595) MEPKPTLKYVSFVDEPHIRMVDQQLLGKSLQVVKGQEVPRPQMDFSDLSRLSLSLHDSPLTPGQSEEIQLLHEEVAPKSGDSPSWCQCGNCLPSRLPEQRRALEELCCRRKPGRCITTSKLFHKLVLSRDTLQLLLLYQDPLLVLGEEATNSRLRHRAYRCYATWRFGSQDMADFAILPSCCRWRIRKEFPKTEGQYSGFKYPY | binds |  |  |
| HA-P2X7-CT2 (mouse P2X7 C-terminal domain, amino acids 392-595), from transfected DO-11.10 cells (domain or fragment, UniProt Q9Z1M0 392-595) MEPKPTLKYVSFVDEPHIRMVDQQLLGKSLQVVKGQEVPRPQMDFSDLSRLSLSLHDSPLTPGQSEEIQLLHEEVAPKSGDSPSWCQCGNCLPSRLPEQRRALEELCCRRKPGRCITTSKLFHKLVLSRDTLQLLLLYQDPLLVLGEEATNSRLRHRAYRCYATWRFGSQDMADFAILPSCCRWRIRKEFPKTEGQYSGFKYPY |  | binds | binds |

From publication PMC11818346
